Measurements published in doi:10.1101/2020.12.22.423950.
These are yes or no findings as the source states them, for the method shown. In cells and extracts the contact can be indirect. A yes stands for co-enrichment or nearness to the bait. Other partners may have been found. Tags and fused reporters may be left off the sequences shown.

Target: T1, Flag- and HA-tagged Sting (F/HA-Sting), Stimulator of interferon genes (UniProt Q3TBT3)
T1 sequence: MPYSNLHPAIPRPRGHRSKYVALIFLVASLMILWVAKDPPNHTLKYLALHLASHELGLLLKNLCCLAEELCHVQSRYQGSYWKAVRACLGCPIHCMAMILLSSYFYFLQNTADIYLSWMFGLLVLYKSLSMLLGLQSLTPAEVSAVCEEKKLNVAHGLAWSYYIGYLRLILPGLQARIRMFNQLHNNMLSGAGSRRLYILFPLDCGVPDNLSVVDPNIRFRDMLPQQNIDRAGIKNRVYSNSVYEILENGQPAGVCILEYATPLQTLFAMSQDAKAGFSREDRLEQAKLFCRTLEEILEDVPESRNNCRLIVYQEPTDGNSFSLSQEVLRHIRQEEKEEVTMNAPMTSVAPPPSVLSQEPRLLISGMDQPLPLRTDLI
Assay: affinity purification with mass spectrometry

B1: Fatty acid desaturase 2 (Fads2), endogenous in MEF (enzyme, UniProt Q9Z0R9 1-444)
chain: MGKGGNQGEGSTERQAPMPTFRWEEIQKHNLRTDRWLVIDRKVYNVTKWSQRHPGGHRVIGHYSGEDATDAFRAFHLDLDFVGKFLKPLLIGELAPEEPSLDRGKSSQITEDFRALKKTAEDMNLFKTNHLFFFLLLSHIIVMESLAWFILSYFGTGWIPTLVTAFVLATSQAQAGWLQHDYGHLSVYKKSIWNHVVHKFVIGHLKGASANWWNHRHFQHHAKPNIFHKDPDIKSLHVFVLGEWQPLEYGKKKLKYLPYNHQHEYFFLIGPPLLIPMYFQYQIIMTMISRRDWVDLAWAISYYMRFFYTYIPFYGILGALVFLNFIRFLESHWFVWVTQMNHLVMEIDLDHYRDWFSSQLAATCNVEQSFFNDWFSGHLNFQIEHHLFPTMPRHNLHKIAPLVKSLCAKHGIEYQEKPLLRALIDIVSSLKKSGELWLDAYLHK
binding: binds
